According to PubChem BioAssay AID2685 (National Center for Advancing Translational Sciences (NCATS), 2010):
The list shows a part of the results. Shown are side measurements of this screen, not its main read-out; they come without a call. Most of these compounds were active or inconclusive in the main read-out, so they are no random draw. Potencies come from curve fits of mixed quality, noted in brackets.

Test: qHTS Assay for Lipid Storage Modulators in Drosophila S3 Cells;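 as to cell number change: cells counted by Cell Tracker Red CMTPX staining in the red channel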
Settings: BODIPY lipid droplet fluorescence, 18-24 h; for cell number change: measured here: cell count max response, cells fed with added oleic acid
Procedure, shortened: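 Laser-scanning cytometry quantifies lipid droplet accumulation (500–530 nm total intensity; droplet/cell object ratio) in oleic acid-fed (400 uM added) Drosophila S3 cells treated with a concentration series. 20 uM Triacsin C defined 100% inhibition.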

[1] = measured here: cell number channel AC50, cells fed with added oleic acid
[2] = measured here: lipid fluorescence (Fed channel) AC50, cells fed with added oleic acid

SMILES | cell number change | AC50 [1] | AC50 [2]
CCCCCCCN(C(=O)CCl)c1ccccc1C | -35.6% | 20.6 µM [falling, single point] | 23.1 µM [falling, single point]
C=CCn1cc(C(=O)OC)c(=O)c2cc(S(=O)(=O)N3CCCCCC3)ccc21 | 26.3% |  | 29.1 µM [rising, single point]
O=C1[C@H]2[C@@H](c3ccc(F)cc3)N3C(=O)N(c4ccccc4)C(=O)[C@@]3(Cc3ccc(Cl)cc3)[C@H]2C(=O)N1C1CCCCC1 | 44.9% | 20.6 µM [rising, partial curve, poor fit] | 2.06 µM [rising, single point]
Cc1ccc(C)c(NS(=O)(=O)c2cc(C(=O)NCC3CCCO3)ccc2C)c1 (stereo not drawn) | -20.6% |  | 1.16 µM [falling, full curve, poor fit]
CCOC(=O)c1cc2c(=O)n3ccccc3nc2n(CCOC)c1=NC(=O)C(C)(C)C | -18% |  | 
COc1cc(CN2CCN(C3CCC3)CC2CCO)cc(OC)c1 (stereo not drawn) | 6.93% |  | 
Cc1ccc(C(=O)N/C(=C\c2ccccc2F)c2nc(=S)[nH][nH]2)cc1 | -30.2% |  | 
O=C(CSc1ccccn1)c1ccc(F)cc1 | 13.8% | 0.184 µM [rising, full curve, poor fit] | 
CCOC(=O)c1c(C#N)cnn1-c1ccc(C)cc1 | 34.2% | 11.6 µM [rising, partial curve, poor fit] | 
CSCCC(Nc1ccc(S(=O)(=O)N2CCOCC2)cc1[N+](=O)[O-])C(=O)OCC(=O)NCC(C)C (stereo not drawn) |  |  | 0.13 µM [falling, full curve, poor fit]
COc1cccc(NC(=O)N2CCOCC2)c1 | -61.2% | 32.6 µM [falling, partial curve] | 0.146 µM [rising, full curve, poor fit]
CSc1nc(C)c(CCO)c(=O)[nH]1 | -0.652% | 6.51 µM [rising, single point] | 
O=C(Nc1cccc2ccccc12)c1ccc(Cn2cc(Cl)cn2)cc1 | -24.2% |  | 2.31 µM [falling, partial curve, poor fit]
COc1ccc(CCNC(=O)Cc2cc(OCc3ccccc3)c(OC)cc2[N+](=O)[O-])cc1OC | -34.5% | 11.6 µM [falling, single point] | 10.3 µM [falling, partial curve]
O=C(CSc1nc2ccccc2c(=O)n1Cc1ccco1)NCc1ccco1 | -72.1% | 14.6 µM [falling, partial curve] | 14.6 µM [falling, partial curve]
COc1ccc(C2=CC(c3cc(OC)c(OC)c(OC)c3)NC(=S)N2)cc1 (stereo not drawn) |  |  | 2.31 µM [rising, partial curve]
CCC(C)(C)NC(=O)c1cc(S(=O)(=O)N2CCCCC2)ccc1N1CCOCC1 |  |  | 29.1 µM [rising, single point]
CCCCn1c(N)c(N(CCOC)C(=O)C2CC(=O)N(c3cccc(SC)c3)C2)c(=O)[nH]c1=O (stereo not drawn) | 14.5% |  | 
O=C(NC1CCN(C(=O)Nc2cccc(Cl)c2)CC1)c1ccco1 | 7.14% |  | 11.6 µM [rising, partial curve]

Record cards, as listed above:
`O=C(CSc1nc2ccccc2c(=O)n1Cc1ccco1)NCc1ccco1` as listed: cell number change: -72.1%; AC50 [1]: 14.6 µM [falling, partial curve]; AC50 [2]: 14.6 µM [falling, partial curve]
`COc1ccc(CCNC(=O)Cc2cc(OCc3ccccc3)c(OC)cc2[N+](=O)[O-])cc1OC` as listed: cell number change: -34.5%; AC50 [1]: 11.6 µM [falling, single point]; AC50 [2]: 10.3 µM [falling, partial curve]

Continuation.

SMILES | cell number change | AC50 [1] | AC50 [2]
CNC(=O)CSc1nnc(-c2cccnc2)n1-c1ccc(C)cc1 | -2.95% |  | 0.00517 µM [falling, full curve, poor fit]
Cn1c(NCCCN2CCOCC2)nc2c1c(=O)n(Cc1ccc(Cl)cc1)c(=O)n2C | 22.7% | 1.16 µM [rising, full curve, poor fit] | 0.0058 µM [falling, full curve, poor fit]
Cc1oc(-c2ccccc2Cl)nc1CS(=O)CC(=O)NCc1ccco1 (stereo not drawn) | -7.22% |  | 
c1ccc2sc(Nc3nc4cc5c(cc4s3)OCO5)nc2c1 | -20.3% |  | 2.31 µM [rising, single point]
COc1cc(/C=N/N2CCN(Cc3ccc(Cl)cc3)CC2)ccc1OC(C)=O | -9.71% |  | 
CCOC(=O)c1c(CC(C)C)csc1NC(C)=O | -63.5% | 29.1 µM [falling, single point] | 6.51 µM [rising, single point]
COc1ccc(-c2nnn3c2nc(NCc2ccccc2)c2ccccc23)cc1 | 28.9% | 0.82 µM [rising, full curve, poor fit] | 0.411 µM [rising, full curve, poor fit]
CC(C)Nc1nc(NC(N)=S)nc(NC(C)(C)C)n1 | -8.95% |  | 0.164 µM [falling, full curve, poor fit]
CCCC[C@@H]1CNC(=S)N1CCC12CC3CC(CC(C3)C1)C2 | -28.6% |  | 29.1 µM [falling, single point]
O=C(CSc1nnc(CNC(=O)c2ccccc2F)o1)NCC1CCCO1 (stereo not drawn) | 5.63% |  | 29.1 µM [falling, single point]
CON1C(=O)C(=O)N(OC)C2CCCCCC21 (stereo not drawn) | 149% | 29.1 µM [rising, single point] | 23.1 µM [rising, single point]
CCCCNC(=O)c1cc(C)nc2ccccc12 | -8.92% |  | 0.517 µM [falling, full curve, poor fit]
O=C(NC1CCN(C(=O)NCc2ccccc2)CC1)c1ccco1 | -13.6% |  | 2.31 µM [falling, full curve, poor fit]
Cn1c(NC(=O)c2ccc(F)c(F)c2)cc(=O)n(C)c1=O | -0.486% | 0.731 µM [falling, full curve, poor fit] | 6.51 µM [falling, single point]
CCC(=O)c1cc2c(cc1NC(=O)c1ccccc1)OCCO2 |  |  | 4.11 µM [rising, partial curve]
CC(C)[C@H](Nc1ccc(C(F)(F)F)cc1[N+](=O)[O-])C(=O)O | -18.1% |  | 3.66 µM [falling, full curve]
O=C(CCCN1CCc2[nH]c3ccc(F)cc3c2C1)c1ccc(F)cc1 | 61.1% | 29.1 µM [rising, single point] | 
CN1CCN(CC/C=C2/c3ccccc3Sc3ccc(S(=O)(=O)N(C)C)cc32)CC1 |  |  | 0.0259 µM [falling, full curve, poor fit]
